Results reported in patent publication US8338425B2, “Heterocyclic kinase inhibitors” (Concert Pharmaceuticals, Inc., priority 2007, dated 2012).
Some results were stated once for a whole list of compounds, not compound by compound. Some compounds share one range, which may span the group rather than tell each member.

assay: Human liver microsome (HLM) metabolic stability assay; format: in vitro ADME; conditions: increase of HLM half life relative to dasatinib
Method: Microsomal Assay: Human liver microsomes (20 mg/mL) were obtained from Xenotech, LLC (Lenexa, Kans.). β-nicotinamide adenine dinucleotide phosphate, reduced form (NADPH), magnesium chloride (MgCl2), and dimethyl sulfoxide (DMSO) were purchased from Sigma-Aldrich. The incubation mixtures were prepared according to Table 2:
Determination of Metabolic Stability: Two aliquots of this reaction mixture were used for a compound of this invention. The aliquots were incubated in a shaking water bath at 37° C. for 3 minutes. The test compound was then added into each aliquot at a final concentration of 0.5 μM. The reaction was initiated by the addition of cofactor (NADPH) into one aliquot (the other aliquot lacking NADPH served as the negative control). Both aliquots were then incubated in a shaking water bath at 37° C. Fifty microliters (50 μL) of the incubation mixtures were withdrawn in triplicate from each aliquot at 0, 5, 10, 20, and 30 minutes and combined with 50 μL of ice-cold acetonitrile to terminate the reaction. The same procedure was followed for dasatinib and for the positive control, 7-ethoxycoumarin. Testing was done in triplicate.
Data analysis: The in vitro half-lives (t1/2s) for test compounds were calculated from the slopes of the linear regression of % parent remaining (ln) vs incubation time relationship. in vitro t1/2=0.693/k
k=−[slope of linear regression of % parent remaining(ln) vs incubation time]
Data analysis was performed using Microsoft Excel Software.
The metabolic stability of compounds of Formula I was tested using pooled liver microsomal incubations. Full scan LC-MS analysis was then performed to detect major metabolites. Samples of the test compounds, exposed to pooled human liver microsomes, were analyzed using HPLC-MS (or MS/MS) detection. For determining metabolic stability, multiple reaction monitoring (MRM) was used to measure the disappearance of the test compounds. For metabolite detection, Q1 full scans were used as survey scans to detect the major metabolites.

Longer half lives in the HLM assay than dasatinib, 16-25%:
[2H]C([2H])(O)CN1CCN(c2cc(Nc3ncc(C(=O)Nc4c(Cl)cccc4C([2H])([2H])[2H])s3)nc(C)n2)CC1 [Compound 101, N-(2-Chloro-6-(methyl-d3)phenyl)-2-(6-(4-(2,2-d2-2-hydroxyethyl)piperazin-1-yl)-2-methylpyrimidin-4-ylamino)thiazole-5-carboxamide]
[2H]C([2H])([2H])c1cccc(Cl)c1NC(=O)c1cnc(Nc2cc(N3CCN(C([2H])([2H])C([2H])([2H])O)CC3)nc(C)n2)s1 [Compound 103, N-(2-Chloro-6-(methyl-d3)phenyl)-2-(6-(4-(1,1,2,2-d4-2-hydroxyethyl)piperazin-1-yl)-2-methylpyrimidin-4-ylamino)thiazole-5-carboxamide]
[2H]C([2H])([2H])c1cccc(Cl)c1NC(=O)c1cnc(Nc2cc(N3C([2H])([2H])C([2H])([2H])N(C([2H])([2H])C([2H])([2H])O)C([2H])([2H])C3([2H])[2H])nc(C)n2)s1 [Compound 115, N-(2-Chloro-6-(methyl-d3)phenyl)-2-(6-(4-(1,1,2,2-d4-2-hydroxyethyl)-(piperazin-d8)-1-yl)-2-methylpyrimidin-4-ylamino)thiazole-5-carboxamide]
[2H]C1([2H])N(CCO)C([2H])([2H])C([2H])([2H])N(c2cc(Nc3ncc(C(=O)Nc4c(C)cccc4Cl)s3)nc(C)n2)C1([2H])[2H] [Compound 117, N-(2-Chloro-6-methylphenyl)-2-(6-(4-(2-hydroxyethyl)-(piperazin-d8)-1-yl)-2-methylpyrimidin-4-ylamino)thiazole-5-carboxamide]
